# Measurements: patent US20230331778 (published 2023)
# Experiment: general procedure: Fmoc solid-phase peptide synthesis; Fmoc-Rink Amide AM resin
# Details: for crude mass / crude yield: whole synthesis; for crude yield: scale of the general procedure 33 mmol; for final HPLC purity: Analytical HPLC
# [1] = oxidative folding step, hydrochloride
Substance,"step yield (purification step, hydrochloride) [%]","crude mass (hydrochloride, run 1) [g]","crude mass (hydrochloride, run 2) [g]","crude yield (hydrochloride, run 1) [%]","crude yield (hydrochloride, run 2) [%]",final HPLC purity [1] [%],oxidative folding yield [1] [%],"final HPLC purity (purification step, chloride salt) [%]"
Acetyl-D-Cys(Trt)-D-Ala-D-Arg(Pbf)-D-Arg(Pbf)-D-Arg(Pbf)-D-Ala-D-Arg(Pbf)-Rink Amide Resin,50,18,18.4,96.7,98.3,–,–,–
Etelcalcetide,–,–,–,–,–,99.8,43,99.8
